Experimental findings from publication PMC11490574 are described below.

Chains of the proteins cited; added tags and fusions are not shown. Lines headed by an entry give the natural chain unless they say otherwise; changes in a name come on top. Residues count along the entry.
UniProt Q9NZI8, 195-343: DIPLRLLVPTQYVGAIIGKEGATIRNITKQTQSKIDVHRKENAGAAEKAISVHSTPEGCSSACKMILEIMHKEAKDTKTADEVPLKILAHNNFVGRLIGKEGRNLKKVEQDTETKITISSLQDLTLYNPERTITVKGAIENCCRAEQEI
UniProt Q9NZI8, 2-156: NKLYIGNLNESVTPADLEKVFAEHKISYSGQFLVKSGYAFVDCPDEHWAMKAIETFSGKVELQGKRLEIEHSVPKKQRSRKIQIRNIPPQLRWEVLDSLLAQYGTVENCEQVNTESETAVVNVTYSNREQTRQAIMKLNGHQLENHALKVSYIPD

The target in one series is IGF2BP1 KH1-2 (UniProt Q9NZI8). Nature of the series: fluorescence anisotropy. As to conditions: FA: 25 mM HEPES 7.3, 150 mM NaCl, […] Tween 20, 10 ug/mL heparin, 2 mM EDTA, 0.5 mM TCEP, 10 nM RNA, 20 C; recombinant protein; protein details: N-terminal His6 retained; label: 5'-fluorescein. A general note: In fluorescence polarisation assays a small probe gives low polarisation when free and higher when bound to something large.

Another series has as its target IGF2BP1 RRM1-2 (UniProt Q9NZI8). Nature of the series: fluorescence anisotropy. As to conditions: text: very low affinity, printed '< 100 uM'; FA: 25 mM HEPES 7.3, 150 mM NaCl, […] Tween 20, 10 ug/mL heparin, 2 mM EDTA, 0.5 mM TCEP, 10 nM RNA, 20 C; recombinant protein; protein details: His removed by 3C; label: 5'-fluorescein.
The target in a further series is T1, IGF2BP1 linker 1 S181E (UniProt Q9NZI8).
T1 sequence (looked up, limits assumed): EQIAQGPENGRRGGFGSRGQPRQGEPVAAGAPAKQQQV
Nature of the series: NMR HSQC titration. The conditions noted are these: recombinant protein; protein details: His-SUMO removed by SENP.

Series [1] has as its target IGF2BP1 linker 1 wild-type (UniProt Q9NZI8). Nature of the series: NMR HSQC titration. As to conditions: recombinant protein; protein details: His-SUMO removed by SENP.

For at least one entry, the source does not settle the construct or the ends of the probe. For some of these results: The comparison behind a weaker result is the experiment's own reference, which may not be listed here. For some of these results: Where a protein sequence is shown, tags need not be part of it.

With “GUGACAUGUCCUCUCUGCUUGGUGUAAACCAUUCUU [XBP1 36 nt]”, in the series with IGF2BP1 KH1-2, the half-maximal binding is over 15 µM. Also, in the series with IGF2BP1 RRM1-2, the binding result is given as “binds more weakly”. For the sequence UGUGUGUGUGUGUGUGUGUGUGUG [12xUG], in the series with IGF2BP1 linker 1 S181E, the binding result was “binds more weakly”. “ACCGGACUGUUACCAACACCCACACCCC [ACTB 28 nt]”: in the series with IGF2BP1 KH1-2, the half-maximal binding is over 15 µM. Also, in the series with IGF2BP1 RRM1-2, the binding result is “binds more weakly”. Turning to GUGACAUGUC [XBP1 10 nt], the binding result (in the series with IGF2BP1 linker 1 S181E; in series [1]) was “binds more weakly” each time.
